This experiment is described as follows: qHTS Assay for Lipid Storage Modulators in Drosophila S3 Cells.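 On cell number change: cells counted by Cell Tracker Red CMTPX staining in the red channel.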 The following applies: BODIPY lipid droplet fluorescence, 18-24 h; for cell number change: measured here: cell count max response, cells fed with added oleic acid. The procedure, abridged:
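Drosophila S3 cells loaded with oleic acid (400 uM, as added) and compounds at several concentrations; lipid droplets imaged by 488-nm laser-scanning cytometry, 500–530 nm intensity and object ratio to cell channel. Percent activity normalized to 20 uM Triacsin C.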
On the technique in general: Quantitative high-throughput screening tests each substance at several concentrations.

Where [1] appears, read: measured here: cell number channel AC50, cells fed with added oleic acid.
Where [2] appears, read: measured here: lipid fluorescence (Fed channel) AC50, cells fed with added oleic acid.

Some of the results follow. Further columns of the screen follow, without active or inactive calls. Compounds called inactive in the main read-out are mostly missing here. The note in brackets gives the kind of curve behind each potency; many fits are weak.

The text below walks through data of PubChem BioAssay AID2685 (National Center for Advancing Translational Sciences (NCATS), 2010).

Usually AC50 stands for the concentration giving half of the maximal activity seen. A high value points to activity only at high concentration.

On to `CCc1ccc(NC(=O)Cn2c(=O)n(CCCC(=O)NCc3ccco3)c(=O)c3ccccc32)cc1`, for which the cell number change is -43.8%. Also, under setting [1], the AC50 is 18.4 µM [falling, single point].
Take `CC(Sc1nnc(-c2ccc(C(C)(C)C)cc2)n1C)C(N)=O` (configuration not stated): the cell number change is -9.68%.
As to `CCOc1ccc(NS(=O)(=O)c2ccc(C)c(C(N)=O)c2)cc1`, the cell number change was -18.5%. Further, under setting [2], the AC50 is 0.517 µM [falling, partial curve, poor fit].
For `O=C1CC(N2CCN(c3ccc(C(=O)c4ccc(F)cc4)cc3)CC2)C(=O)N1` (configuration not stated), the cell number change was -1.01%.
On to `CCc1cccc(NC(=O)CCCn2c(=O)[nH]c3ccsc3c2=O)c1`, for which the cell number change worked out at 20.6%. In addition, the AC50 under setting [1] is 0.411 µM [falling, single point].
Regarding `COc1cccc(C2=NNC(=NCc3ccccc3)SC2)c1`, the cell number change was determined as 4.4%.
With `Cc1cccc(C)c1NC(=O)CSc1nnnn1-c1ccc(C(=O)O)cc1`, the cell number change worked out at 0.0585%.
Regarding `CC(Oc1ccc(F)cc1)C(=O)Nc1cc(S(=O)(=O)N2CCOCC2)ccc1N1CCN(C)CC1` (configuration not stated), the AC50 under setting [1] was 0.103 µM [rising, full curve, poor fit].
Regarding `O=C(O)C1CCCCC1C(=O)Nc1ccc(S(=O)(=O)N2CCCCC2)cc1` (configuration not stated), the cell number change came out at 17.9%. In addition, the AC50 under setting [2] was 0.116 µM [rising, single point].
Take `O=C(NCc1ccc(F)cc1)C(Cc1ccccc1)n1cccc1` (configuration not stated): the cell number change is -16.6%. Besides, under setting [2], the AC50 is 0.731 µM [falling, full curve].
Take `Cc1cc2ccccc2nc1SCC(=O)NC1CCCC1`: the cell number change was 2.46%.
`Cc1cc(Br)cc(Br)c1OCC(=O)NNC(=O)c1ccoc1C`: under setting [2], the AC50 is 20.6 µM [rising, single point].
In the case of `O=C1OC(N2CCN(C(=O)c3ccco3)CC2)c2ccccc21` (configuration not stated), the cell number change is -7.9%.
On to `COC(=O)c1c(NC(=O)CN2C(=O)c3ccccc3C2=O)sc(Cc2ccc3c(c2)OCO3)c1C`, for which the cell number change stood at 3.66%. Besides, the AC50 under setting [2] is 1.64 µM [rising, full curve].
As for `O=C(COc1ccc(C(=S)N2CCC(Cc3ccccc3)CC2)cc1)N1CCOCC1`, the cell number change was 20.8%. Moreover, the AC50 under setting [2] is 0.1 µM [rising, full curve, poor fit].
On to `COc1cccc(C(=O)N2N=C(c3cccc(OC)c3)CC2(O)C(F)(F)F)c1` (configuration not stated), for which the cell number change was -2.87%. For the same compound, the AC50 under setting [2] is 0.461 µM [falling, single point].
On to `CC(=O)N1CCCc2cc(S(=O)(=O)N3CCCC(C(=O)N4CCN(c5cc(C)ccc5C)CC4)C3)ccc21` (configuration not stated), for which the cell number change was -19.6%.
Take `C/C=C/c1ccc(OCCCNC(C)CC)c(OC)c1` (configuration not stated): the cell number change was -36.2%. Further, the AC50 under setting [1] is 8.2 µM [falling, partial curve]. Also, under setting [2], the AC50 is 29.1 µM [falling, single point].
Regarding `Cc1csc(NC(=O)CN2C(=O)c3ccccc3S2(=O)=O)n1`, the cell number change is 18.4%. Besides, under setting [2], the AC50 is 0.731 µM [rising, full curve].
`COc1ccc(C(=O)Nc2ccc(S(=O)(=O)N3CCCC3)cc2)cc1[N+](=O)[O-]`: the cell number change is -26.3%. Further, the AC50 under setting [2] is 0.891 µM [falling, full curve].
In the case of `COc1ccc(Cl)cc1C(=O)NNC(=O)c1ccncc1`, the cell number change amounted to 20.4%.
Consider `COc1ccc(CN2CCNC(=O)C2CC(=O)NCCSc2nccn2C)cc1OC` (configuration not stated), for which the cell number change came to 15.7%. Further, the AC50 under setting [2] was 29.1 µM [falling, single point].
For the compound `Cc1ccsc1C(=O)OCC(=O)NCc1ccco1`, the cell number change is -2.97%. Also, the AC50 under setting [2] was 0.651 µM [rising, single point].
With `Cc1cc(C)cc(C(=O)NC(=S)Nc2ccc3[nH]c(=O)[nH]c3c2)c1`, the cell number change came out at 54.4%. Besides, the AC50 under setting [2] was 10.3 µM [rising, partial curve].
As for `COc1cccc(C2(c3cccc(OC)c3)CC2C(=O)Nc2ccccc2Cl)c1` (configuration not stated), the cell number change was -15.1%. For the same compound, under setting [2], the AC50 was 20.6 µM [falling, single point].
With `CC(OC(=O)c1ccc(Cl)nc1)C(=O)Nc1ccc(S(=O)(=O)N2CCCC2)cc1` (configuration not stated), the AC50 reads like this: under setting [1], 2.06 µM [rising, partial curve, poor fit]; under setting [2], 25.9 µM [falling, single point].
Turning to `O=C(CN1C(=O)CSc2ncccc21)Nc1cccc(Cl)c1`, the cell number change stood at 11%. Besides, under setting [2], the AC50 was 1.46 µM [rising, partial curve].
In the case of `CC1(c2nnc(-c3ccc(Cl)cc3)o2)CC(c2cccc(Cl)c2)=NO1` (configuration not stated), the cell number change stood at 3.12%.
Consider `O=C1CSC(c2cn(-c3ccccc3)nc2-c2cc3ccccc3oc2=O)N1Cc1ccco1` (configuration not stated), for which the cell number change is -13.1%. Besides, the AC50 under setting [2] is 1.64 µM [falling, partial curve].
As for `CC(=O)Nc1ccc(NC(=O)c2ccc(C)c(S(=O)(=O)Nc3cccc(C)c3)c2)cc1`, the cell number change was determined as 5.44%. For the same compound, the AC50 under setting [2] was 29.1 µM [falling, single point].
With `CC(C)(C)C(=O)/C(C#N)=c1\s/c(=C\c2ccncc2)c(=O)n1CCCN1CCOCC1`, the cell number change was 1.56%. Also, under setting [2], the AC50 was 0.13 µM [rising, full curve, poor fit].
As for `COc1cc(OC)cc(N(C(=O)CNC(=O)c2cccs2)C(C(=O)NCC2CCCO2)c2ccccc2)c1` (configuration not stated), the cell number change is -15.2%. Also, the AC50 under setting [2] is 0.206 µM [falling, single point].
`CCN(CC(=O)Nc1ccc(OC)cc1)C(=O)c1cc(-c2cccs2)nn1-c1ccccc1`: the cell number change is 47.1%. In addition, the AC50 under setting [1] is 14.6 µM [rising, single point].
Take `CCOc1ccc(N=Cc2c(C)[nH]n(-c3nc4ccccc4[nH]3)c2=O)cc1`: the cell number change was -29.5%. The AC50 under setting [2] was 29.1 µM [falling, single point].
For `Oc1ccccc1OCc1nc2ccccc2s1`, the cell number change was -3.43%. Moreover, the AC50 under setting [2] is 0.116 µM [falling, full curve, poor fit].
For the compound `O=C(CSc1ccc2nnc(-c3ccccn3)n2n1)Nc1ccccc1C(F)(F)F`, the cell number change came to 6.93%.
Consider `CN(C)S(=O)(=O)c1ccc(C(=O)/C=C/c2cccnc2)cc1`, for which the AC50 under setting [2] was 0.291 µM [falling, full curve].
As for `Cc1ccc(OCC(=O)NCc2ccc3c(c2)OCO3)c([N+](=O)[O-])n1`, the cell number change stood at 128%. Also, the AC50 under setting [1] was 20.6 µM [rising, single point]. Also, the AC50 under setting [2] was 2.59 µM [rising, partial curve].
With `NS(=O)(=O)c1ccc2c(c1)C1C=CCC1C(C1CC=CCC1)N2` (configuration not stated), the cell number change was -18.4%. Further, under setting [2], the AC50 was 8.2 µM [falling, partial curve].
Turning to `CCOC(=O)CC1C(=O)NCCN1c1nc2c(C)cccn2c(=O)c1/C=C1\SC(=S)N(C(C)CC)C1=O` (configuration not stated), the cell number change was -97.1%. The AC50 under setting [1] is 3.26 µM [falling, full curve]. In addition, the AC50 under setting [2] is 14.6 µM [falling, partial curve, poor fit].
`N/C(=N\c1nc2ccccc2o1)NC(=O)c1ccccc1`: the AC50 was 6.51 µM [rising, single point] under setting [1] and 4.11 µM [rising, partial curve] under setting [2].
`CC(=O)Nc1nc(-c2ccc3ccccc3c2)cs1`: the cell number change turned out to be 34.7%. For the same compound, the AC50 under setting [1] was 29.1 µM [rising, single point].
With `O=C(Nc1cccc(S(=O)(=O)Nc2ccc(Cl)cc2)c1)c1ccc(Cl)nc1`, the cell number change was -50.2%. For the same compound, under setting [1], the AC50 was 10.3 µM [falling, partial curve]. In addition, the AC50 under setting [2] is 7.31 µM [falling, partial curve].
In the case of `Cc1nn(CC(C)C)c(Cl)c1C(=O)N(c1ccc(Cl)cc1F)S(C)(=O)=O`, the cell number change came to 16.1%.
In the case of `CCOC(=O)CNS(=O)(=O)c1ccc2c3c(cccc13)C(=O)N2CC`, the cell number change was 1.49%. Under setting [2], the AC50 is 29.1 µM [rising, single point].
With `O=S(=O)(c1ccc(Br)cc1)N1CCOC12CCCCC2`, the cell number change is -8.92%.
In the case of `COCC(=O)OCC(=O)Nc1cc([N+](=O)[O-])ccc1Cl`, the cell number change is 44.4%. For the same compound, the AC50 under setting [1] was 8.2 µM [rising, partial curve]. Moreover, the AC50 under setting [2] is 18.4 µM [rising, single point].
For `CN(c1ccccc1)S(=O)(=O)c1ccc(Cl)c(C(=O)OCC(N)=O)c1`, the cell number change is -11.5%.
Consider `COc1ccc(Cl)cc1N(CC(=O)NC1CC2CCC1C2)S(=O)(=O)c1ccccc1` (configuration not stated), for which the cell number change is -8.8%.
Take `Cn1c(SCC(=O)NCC2CCCO2)ncc(C(=O)Nc2ccc(Cl)cc2)c1=O` (configuration not stated): the cell number change is -5%.
As for `N#CCCN(C(=O)COC(=O)c1cc(S(=O)(=O)N2CCOCC2)ccc1Cl)c1ccc(F)cc1`, the cell number change is -17.5%. Further, the AC50 under setting [2] was 29.1 µM [rising, single point].
As to `Cc1ccc(NC(=O)CCCc2c[nH]c3ccccc23)nc1`, the cell number change was determined as 34%. For the same compound, the AC50 under setting [1] was 35.5 µM [rising, partial curve].
On to `O=C(CCn1c(=O)oc2ccccc21)NCCCN1CCOCC1`, for which the cell number change was 4.35%. Besides, the AC50 under setting [2] was 0.651 µM [falling, partial curve, poor fit].
Consider `Cc1ccc(/C=C/c2onc(C)c2S(=O)(=O)N2CCC(C(=O)N3CCCCC3)CC2)cc1`, for which the cell number change came to 0.816%. Further, the AC50 under setting [2] was 29.1 µM [falling, single point].
As for `Cc1ccc(S(=O)(=O)N2CCC(C(=O)NCCCN3CCOCC3)CC2)cc1`, the cell number change is -2.66%. Also, under setting [2], the AC50 was 8.2 µM [rising, partial curve].
Regarding `O=C(O)CSc1ncccn1`, the cell number change is -43%. The AC50 under setting [1] was 5.17 µM [falling, full curve]. Further, under setting [2], the AC50 is 0.517 µM [falling, full curve].
For `CO[C@H]1[C@@H]2C=CO[C@@H](O[C@H]3O[C@@H](CO)[C@H](O)[C@@H](O)[C@@H]3O)[C@@H]2[C@@]2(CO)O[C@@H]12`, the cell number change was 3.37%. The AC50 under setting [2] was 0.259 µM [falling, single point].
On to `Cn1cc(C(=O)N2CCN(C(=O)c3ccco3)CC2)c2c3ccccc3n(C)c2c1=O`, for which the cell number change turned out to be 25.2%.
On to `N#CCCn1cc(C(=O)Nc2cccc(C(=O)O)c2)c(-c2ccc(Cl)cc2)n1`, for which the cell number change was 10.2%. Moreover, the AC50 under setting [2] is 29.1 µM [rising, single point].
Consider `CC(C)c1ccc(N(CC(=O)N2CCOCC2)S(C)(=O)=O)cc1`, for which the cell number change turned out to be 4.53%.
For the compound `CCOc1ccc(Cn2cc(F)c(=O)[nH]c2=O)cc1`, the cell number change is 33.5%. Moreover, under setting [1], the AC50 was 16.4 µM [rising, partial curve, poor fit].
As to `Cc1ccc(N2C(=O)CC(Sc3ncn[nH]3)C2=O)cc1` (configuration not stated), the cell number change amounted to 18.4%. Moreover, the AC50 under setting [2] is 7.31 µM [rising, partial curve, poor fit].
Consider `COC(=O)c1ccc2nccnc2c1`, for which the cell number change was found to be 30%. Also, the AC50 under setting [1] is 18.4 µM [rising, single point].
